This assay concerns HEK293A TEAD-LUC reporter. The assay can be described thus: TEAD-luciferase reporter activity (YAP activation), robust Z score vs plate; higher = stronger YAP/TEAD activation. To be noted: 24 h. Background: Reporter assays use an easily measured gene product as a stand-in for the process of interest.

Each structure is given as a SMILES string. Some of the results follow. This data set is noisy: repeats of one test often differ as much as different tests do.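 The human kidney-derived cells carry a stably integrated construct of eight TEAD-binding elements driving luciferase, read by luminescence in a drug-repurposing library screen. A compound counts as a hit when its signal is more than five robust Z scores above the plate mean.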

Take `CC[C@H](NC(=O)c1c(O)c(-c2ccccc2)nc2ccccc12)c1ccccc1` [talnetant]: the TEAD-luciferase reporter activity by setting is: (compound concentration: 200 nM) inactive: -0.944; (compound concentration: 2 uM) inactive: -0.5; (compound concentration: 10 uM) inactive: 0.0867.
Regarding `CCCN(CCCCCCNCCc1ccccc1)C1CCc2c(ccc(O)c2O)C1` (centres undefined), the TEAD-luciferase reporter activity by setting is: (compound concentration: 200 nM) inactive: -1.7; (compound concentration: 2 uM) inactive: -0.814; (compound concentration: 10 uM) inactive: 0.0935.
In the same order, the values of `c1ccc(C(CCN2CCCCCC2)c2ccccc2)cc1` are inactive: -0.999, inactive: -1.8 and inactive: 3.09.
On the same counts, the results for `CC(C)=CCOc1cc(NC(=S)c2ccncc2)ccc1Cl` are inactive: 2.08, inactive: -0.506 and inactive: 1.38.
On to `C=CC(=O)N1CCC(Oc2cc3c(Nc4ccc(Cl)c(Cl)c4F)ncnc3cc2OC)CC1` [Poziotinib], for which the TEAD-luciferase reporter activity runs as follows: (compound concentration: 200 nM) inactive: -0.173; (compound concentration: 2 uM) inactive: -2.59; (compound concentration: 10 uM) inactive: -3.23.
In the same order, the values of `O=C(O)c1ccc(CN2CCC(CN[C@@H]3C[C@H]3c3ccccc3)CC2)cc1` are inactive: -0.602, inactive: -1.63 and inactive: 0.633.
In the same order, the values of `O=C(NCC12CC3CC(CC(C3)C1)C2)c1cc(CCCNCCCO)ccc1Cl` are inactive: -1.72, inactive: 1.63 and inactive: 0.503.
On to `COc1ccc(-c2ccc3ncc4c(c3c2)n(-c2ccc(N3CCNCC3)c(C(F)(F)F)c2)c(=O)n4C)cn1`, for which the TEAD-luciferase reporter activity is inactive: -2.42 (compound concentration: 200 nM), inactive: -1.12 (compound concentration: 2 uM) and active: 7.7 (compound concentration: 10 uM).
Regarding `O=C(O)CCC(CCCCNS(=O)(=O)c1ccc(Cl)cc1)CCCc1cccnc1` (centres undefined), the TEAD-luciferase reporter activity by setting is: (compound concentration: 200 nM) inactive: -2.43; (compound concentration: 2 uM) inactive: -0.792; (compound concentration: 10 uM) inactive: -1.3.
On to `CCCOc1ccc(C(=O)CCN2CCCCC2)cc1`, for which, for the setting “compound concentration: 2 uM”, the TEAD-luciferase reporter activity was inactive: -0.317.
`CCCOc1ccc(C(=O)CCN2CCCCC2)cc1` [Propipocaine]: the TEAD-luciferase reporter activity is inactive: 0.44 (compound concentration: 200 nM) and inactive: -0.501 (compound concentration: 10 uM).
In the same order, the values of `CCOC(=O)N1CCC(=C2c3ccc(Cl)cc3CCc3cccnc32)CC1` are inactive: -0.889 and inactive: 1.91.
Take `CCOC(=O)N1CCC(=C2c3ccc(Cl)cc3CCc3cccnc32)CC1` [loratadine]: under “compound concentration: 2 uM”, the TEAD-luciferase reporter activity was inactive: -0.472.
Take `CCC(=O)OCC(=O)[C@@]1(OC(=O)CC)[C@@H](C)C[C@H]2[C@@H]3CCC4=CC(=O)C=CC4(C)[C@@]3(Cl)[C@@H](O)CC21C` (some centres undefined) [Beclometasone]: the TEAD-luciferase reporter activity is active: 8.69 (compound concentration: 200 nM), inactive: 0.213 (compound concentration: 2 uM) and inactive: 2.24 (compound concentration: 10 uM).
On the same counts, the results for `COc1ccc(CCNCC(O)COc2ccc(/C(C)=C/C#N)cc2)cc1OC` (centres undefined) are inactive: -1.01, inactive: -0.634 and inactive: 1.58.
On the same counts, the results for `CC(=O)Nc1ncc([N+](=O)[O-])s1` are inactive: -1, inactive: -2.42 and inactive: 3.15.
`O=C(O)c1cn(-c2ccc(F)cc2)c2nc(N3CCNCC3)c(F)cc2c1=O`: the TEAD-luciferase reporter activity was inactive: -0.826 (compound concentration: 200 nM), inactive: -0.749 (compound concentration: 2 uM) and inactive: 1.54 (compound concentration: 10 uM).
Turning to `O=C(O)c1ccc2nn[nH]c2c1`, the TEAD-luciferase reporter activity is, setting by setting: (compound concentration: 200 nM) inactive: -2.84; (compound concentration: 2 uM) inactive: 3.76; (compound concentration: 10 uM) inactive: 3.56.
On the same counts, the results for `CC(C)(C)c1cc(C(C)(C)C)c(NC(=O)c2cnc3ccccc3c2O)cc1O` [Ivacaftor] are inactive: -0.348, inactive: -0.874 and inactive: 0.587.
On the same counts, the results for `Cc1ccc(S(=O)(=O)NCl)cc1` are inactive: -1.63, inactive: -1.37 and inactive: -0.355.
On the same counts, the results for `CC1(C)CCC(C)(C)c2cc(C(=O)Nc3ccc(C(=O)O)cc3)ccc21` are inactive: -0.902, inactive: -0.127 and inactive: 0.342.
Consider `CCCC1C(=O)N2C(N(C)C)=Nc3ccc(C)cc3N2C1=O` (centres undefined) [azapropazone], for which the TEAD-luciferase reporter activity reads like this: (compound concentration: 200 nM) inactive: 0.271; (compound concentration: 2 uM) inactive: -0.511; (compound concentration: 10 uM) inactive: -1.32.
As for `O=C1NCc2ccccc2CC12CCCCN2Cc1ccccc1` (centres undefined), the TEAD-luciferase reporter activity is, setting by setting: (compound concentration: 200 nM) inactive: 3.21; (compound concentration: 10 uM) inactive: 0.297.
As to `Cc1ccc2c(c1)CC1(CC2)CNC=N1` (centres undefined), the TEAD-luciferase reporter activity reads like this: (compound concentration: 200 nM) inactive: -0.743; (compound concentration: 2 uM) inactive: -1.25; (compound concentration: 10 uM) inactive: 2.24.
With `CC(Oc1c(Cl)cccc1Cl)C1=NCCN1` (centres undefined), the TEAD-luciferase reporter activity was inactive: -0.257 (compound concentration: 200 nM), inactive: -1.42 (compound concentration: 2 uM) and active: 5.22 (compound concentration: 10 uM).
With `C[C@@H](O)C(=N)NS(=O)(=O)c1cc(C(=O)C(C(=O)c2cc(F)ccc2F)=C2N=c3ccccc3=N2)ccc1F`, the TEAD-luciferase reporter activity reads like this: (compound concentration: 200 nM) inactive: -0.234; (compound concentration: 2 uM) inactive: -1.64; (compound concentration: 10 uM) inactive: -0.715.
In the same order, the values of `CCCCCCCCCCCCCCCCCC[S+](CCC)c1ccccc1C(=O)OCC` (centres undefined) are inactive: -1.1, inactive: 0.182 and inactive: 2.29.

Source of the values: the supplement of paper PMC10735217.
